Among the data in paper doi:10.1101/2025.01.15.633117 are binding values, retold here.

Protein sequences, listed by entry. Tags and fused reporters are not part of them. Residues count along the entry.
UniProt P29317, residues 24-976: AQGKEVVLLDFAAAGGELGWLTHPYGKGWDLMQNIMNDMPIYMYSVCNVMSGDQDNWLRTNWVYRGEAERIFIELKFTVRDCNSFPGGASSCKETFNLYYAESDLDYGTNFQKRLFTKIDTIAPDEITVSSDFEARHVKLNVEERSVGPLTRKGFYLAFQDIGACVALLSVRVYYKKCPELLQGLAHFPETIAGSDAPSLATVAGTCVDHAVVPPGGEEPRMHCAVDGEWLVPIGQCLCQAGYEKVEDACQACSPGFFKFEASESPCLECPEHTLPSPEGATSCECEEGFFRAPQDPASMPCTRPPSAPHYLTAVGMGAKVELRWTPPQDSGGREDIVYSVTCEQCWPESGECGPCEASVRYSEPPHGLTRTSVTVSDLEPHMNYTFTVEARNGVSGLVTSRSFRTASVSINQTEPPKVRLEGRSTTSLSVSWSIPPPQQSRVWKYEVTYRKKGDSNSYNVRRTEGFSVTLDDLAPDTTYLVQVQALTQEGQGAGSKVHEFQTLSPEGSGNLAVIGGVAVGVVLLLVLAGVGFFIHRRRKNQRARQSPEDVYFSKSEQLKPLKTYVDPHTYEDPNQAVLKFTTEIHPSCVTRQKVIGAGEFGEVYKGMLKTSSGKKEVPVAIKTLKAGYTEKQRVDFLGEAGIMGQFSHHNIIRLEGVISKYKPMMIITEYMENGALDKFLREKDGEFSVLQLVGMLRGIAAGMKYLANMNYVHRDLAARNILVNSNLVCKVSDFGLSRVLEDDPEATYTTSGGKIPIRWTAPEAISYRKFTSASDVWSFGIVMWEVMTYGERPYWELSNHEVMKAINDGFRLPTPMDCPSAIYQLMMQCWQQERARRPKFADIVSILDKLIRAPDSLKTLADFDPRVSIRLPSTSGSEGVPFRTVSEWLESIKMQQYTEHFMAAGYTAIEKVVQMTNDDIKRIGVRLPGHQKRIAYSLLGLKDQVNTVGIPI
UniProt Q01973, residues 30-937: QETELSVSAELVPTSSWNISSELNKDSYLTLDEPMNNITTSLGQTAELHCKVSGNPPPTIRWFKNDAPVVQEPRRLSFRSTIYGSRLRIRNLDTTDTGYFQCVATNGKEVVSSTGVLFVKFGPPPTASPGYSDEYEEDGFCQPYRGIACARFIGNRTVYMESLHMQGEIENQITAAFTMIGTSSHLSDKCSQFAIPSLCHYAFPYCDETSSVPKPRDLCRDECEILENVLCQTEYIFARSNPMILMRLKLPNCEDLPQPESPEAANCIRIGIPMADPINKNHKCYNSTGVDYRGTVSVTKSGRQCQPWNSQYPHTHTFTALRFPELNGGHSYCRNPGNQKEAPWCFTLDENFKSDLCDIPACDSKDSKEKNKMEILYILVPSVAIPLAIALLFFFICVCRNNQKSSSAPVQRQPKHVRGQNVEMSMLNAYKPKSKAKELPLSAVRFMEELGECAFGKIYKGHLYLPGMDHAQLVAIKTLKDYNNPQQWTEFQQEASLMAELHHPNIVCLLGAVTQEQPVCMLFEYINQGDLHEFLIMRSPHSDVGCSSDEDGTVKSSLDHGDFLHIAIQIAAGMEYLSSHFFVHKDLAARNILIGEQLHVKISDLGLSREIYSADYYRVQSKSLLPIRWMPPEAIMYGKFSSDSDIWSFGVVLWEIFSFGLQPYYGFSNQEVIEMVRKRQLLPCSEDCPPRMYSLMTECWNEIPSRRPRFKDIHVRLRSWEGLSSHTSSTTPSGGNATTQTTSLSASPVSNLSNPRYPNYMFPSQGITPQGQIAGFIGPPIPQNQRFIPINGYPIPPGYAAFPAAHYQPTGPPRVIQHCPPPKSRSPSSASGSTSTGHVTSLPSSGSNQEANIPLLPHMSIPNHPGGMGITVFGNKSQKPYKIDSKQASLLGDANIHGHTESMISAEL
UniProt Q01974, residues 34-943: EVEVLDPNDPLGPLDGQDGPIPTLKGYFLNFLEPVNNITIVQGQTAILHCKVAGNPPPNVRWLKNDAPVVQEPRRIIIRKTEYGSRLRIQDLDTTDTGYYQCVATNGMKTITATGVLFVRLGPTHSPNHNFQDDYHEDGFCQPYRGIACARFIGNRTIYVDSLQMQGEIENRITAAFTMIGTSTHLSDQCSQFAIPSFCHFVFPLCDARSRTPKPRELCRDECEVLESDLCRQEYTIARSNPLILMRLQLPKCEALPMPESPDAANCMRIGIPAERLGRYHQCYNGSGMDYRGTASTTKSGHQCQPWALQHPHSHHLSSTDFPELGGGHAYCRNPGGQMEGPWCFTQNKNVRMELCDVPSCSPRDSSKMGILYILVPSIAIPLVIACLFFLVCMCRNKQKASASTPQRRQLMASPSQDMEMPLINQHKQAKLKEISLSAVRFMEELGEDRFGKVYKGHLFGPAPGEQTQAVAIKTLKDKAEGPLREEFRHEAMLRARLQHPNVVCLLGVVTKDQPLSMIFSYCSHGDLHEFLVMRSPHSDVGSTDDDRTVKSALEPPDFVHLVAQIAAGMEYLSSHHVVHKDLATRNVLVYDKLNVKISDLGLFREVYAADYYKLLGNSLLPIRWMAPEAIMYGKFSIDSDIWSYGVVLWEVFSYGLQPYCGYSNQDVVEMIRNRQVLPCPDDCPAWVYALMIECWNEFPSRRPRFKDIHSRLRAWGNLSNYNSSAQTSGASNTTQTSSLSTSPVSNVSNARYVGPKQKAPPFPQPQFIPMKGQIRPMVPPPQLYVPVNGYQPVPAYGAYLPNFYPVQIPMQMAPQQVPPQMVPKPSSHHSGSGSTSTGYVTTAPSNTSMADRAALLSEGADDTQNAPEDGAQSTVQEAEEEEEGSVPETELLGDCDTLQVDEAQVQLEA

Assay in all cases: proximity labelling
The target of assay [1] is EPHA2-V5-miniTurboID (human) (UniProt P29317).
The target in assay [2] is T1, RAI14-V5-miniTurboID (human) (UniProt Q9P0K7).
T1 sequence: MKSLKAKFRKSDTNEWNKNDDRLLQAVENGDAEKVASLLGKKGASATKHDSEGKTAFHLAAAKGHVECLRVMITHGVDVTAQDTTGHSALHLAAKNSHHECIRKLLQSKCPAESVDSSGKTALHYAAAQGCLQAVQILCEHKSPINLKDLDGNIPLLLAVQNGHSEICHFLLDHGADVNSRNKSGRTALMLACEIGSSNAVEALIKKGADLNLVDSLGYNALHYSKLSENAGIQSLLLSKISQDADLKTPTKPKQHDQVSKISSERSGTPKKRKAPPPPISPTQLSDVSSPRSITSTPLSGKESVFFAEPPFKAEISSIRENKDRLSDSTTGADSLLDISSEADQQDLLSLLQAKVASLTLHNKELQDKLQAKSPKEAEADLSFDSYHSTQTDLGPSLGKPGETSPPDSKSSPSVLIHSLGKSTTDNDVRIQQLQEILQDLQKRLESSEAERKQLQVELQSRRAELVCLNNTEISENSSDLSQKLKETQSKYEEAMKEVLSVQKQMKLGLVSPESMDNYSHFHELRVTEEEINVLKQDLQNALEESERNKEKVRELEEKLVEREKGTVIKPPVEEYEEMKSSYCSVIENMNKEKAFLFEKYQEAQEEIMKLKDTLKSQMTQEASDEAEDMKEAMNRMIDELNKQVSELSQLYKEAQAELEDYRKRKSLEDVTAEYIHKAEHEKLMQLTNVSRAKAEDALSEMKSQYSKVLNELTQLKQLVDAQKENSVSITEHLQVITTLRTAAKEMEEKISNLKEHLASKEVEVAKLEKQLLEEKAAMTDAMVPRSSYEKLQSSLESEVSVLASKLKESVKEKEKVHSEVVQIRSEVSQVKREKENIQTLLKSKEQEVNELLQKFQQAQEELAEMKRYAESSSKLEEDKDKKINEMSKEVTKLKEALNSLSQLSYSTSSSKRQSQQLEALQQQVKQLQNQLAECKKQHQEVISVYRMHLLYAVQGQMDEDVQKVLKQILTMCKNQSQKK

Assay [3] addresses T2, PHACTR4-V5-miniTurboID (human) (UniProt Q8IZ21).
T2 sequence: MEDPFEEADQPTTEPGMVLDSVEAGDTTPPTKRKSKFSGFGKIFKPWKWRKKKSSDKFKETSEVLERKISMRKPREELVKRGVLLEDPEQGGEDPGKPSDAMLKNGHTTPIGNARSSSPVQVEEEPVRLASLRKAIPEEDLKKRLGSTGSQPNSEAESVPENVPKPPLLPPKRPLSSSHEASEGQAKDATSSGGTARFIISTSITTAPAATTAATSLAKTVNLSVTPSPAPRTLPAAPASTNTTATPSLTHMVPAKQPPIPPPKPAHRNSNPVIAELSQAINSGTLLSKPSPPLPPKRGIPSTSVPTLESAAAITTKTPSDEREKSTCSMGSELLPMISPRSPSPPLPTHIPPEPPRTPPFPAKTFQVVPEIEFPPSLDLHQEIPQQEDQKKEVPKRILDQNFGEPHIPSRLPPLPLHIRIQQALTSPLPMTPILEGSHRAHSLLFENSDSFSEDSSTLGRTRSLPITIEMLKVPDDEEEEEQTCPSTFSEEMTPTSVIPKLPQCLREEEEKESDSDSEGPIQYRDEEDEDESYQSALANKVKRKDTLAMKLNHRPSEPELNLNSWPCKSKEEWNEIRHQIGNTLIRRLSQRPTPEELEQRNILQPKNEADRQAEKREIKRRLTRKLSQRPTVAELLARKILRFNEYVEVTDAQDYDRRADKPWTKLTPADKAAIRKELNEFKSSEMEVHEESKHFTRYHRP

The next assay addresses T3, VANGL2-BirA*-HA (human) (UniProt Q9ULK5).
T3 sequence: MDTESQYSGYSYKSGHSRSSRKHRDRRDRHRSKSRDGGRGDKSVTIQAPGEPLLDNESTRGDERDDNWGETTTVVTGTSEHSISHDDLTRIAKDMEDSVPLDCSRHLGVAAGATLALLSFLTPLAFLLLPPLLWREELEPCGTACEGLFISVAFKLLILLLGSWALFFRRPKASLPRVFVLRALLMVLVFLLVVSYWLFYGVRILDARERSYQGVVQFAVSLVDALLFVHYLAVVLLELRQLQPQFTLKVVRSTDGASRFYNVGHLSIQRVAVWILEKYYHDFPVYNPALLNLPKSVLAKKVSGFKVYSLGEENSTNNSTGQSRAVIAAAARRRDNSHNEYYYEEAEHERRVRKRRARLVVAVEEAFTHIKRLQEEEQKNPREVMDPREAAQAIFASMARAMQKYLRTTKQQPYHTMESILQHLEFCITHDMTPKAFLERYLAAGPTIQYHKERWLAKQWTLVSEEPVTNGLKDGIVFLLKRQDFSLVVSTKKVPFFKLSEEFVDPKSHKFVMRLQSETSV

A further assay concerns the target ROR1-BirA*-HA (human) (UniProt Q01973).
The next assay concerns the target ROR2-BirA*-HA (human) (UniProt Q01974).
The target in assay [4] is T4, MYC-BirA*-PRICKLE1 (human) (UniProt Q96MT3).
T4 sequence: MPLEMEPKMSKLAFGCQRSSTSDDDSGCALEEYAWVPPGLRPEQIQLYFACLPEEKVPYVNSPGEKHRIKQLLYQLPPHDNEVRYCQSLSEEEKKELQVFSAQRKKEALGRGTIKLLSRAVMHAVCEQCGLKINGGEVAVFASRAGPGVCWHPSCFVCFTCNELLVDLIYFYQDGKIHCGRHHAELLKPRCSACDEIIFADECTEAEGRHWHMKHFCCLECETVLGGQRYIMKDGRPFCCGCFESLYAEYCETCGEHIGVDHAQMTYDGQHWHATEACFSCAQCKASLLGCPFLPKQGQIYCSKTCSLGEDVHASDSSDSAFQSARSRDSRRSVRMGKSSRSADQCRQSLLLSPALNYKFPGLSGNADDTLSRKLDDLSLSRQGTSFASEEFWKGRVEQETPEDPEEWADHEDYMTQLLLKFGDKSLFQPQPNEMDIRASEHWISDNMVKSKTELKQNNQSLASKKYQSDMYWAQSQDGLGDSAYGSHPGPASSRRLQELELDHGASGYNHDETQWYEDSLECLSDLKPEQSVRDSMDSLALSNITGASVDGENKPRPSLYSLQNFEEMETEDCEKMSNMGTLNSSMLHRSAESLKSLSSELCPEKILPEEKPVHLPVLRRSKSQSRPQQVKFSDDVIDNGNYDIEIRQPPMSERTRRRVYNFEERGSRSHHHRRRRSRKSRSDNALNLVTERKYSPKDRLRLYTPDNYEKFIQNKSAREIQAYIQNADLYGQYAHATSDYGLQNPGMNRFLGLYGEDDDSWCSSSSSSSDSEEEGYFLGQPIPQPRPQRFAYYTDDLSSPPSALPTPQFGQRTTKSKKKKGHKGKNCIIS

Results are given in words; binding and its absence hold for the method and conditions named. In cells and extracts the contact can be indirect. A yes stands for co-enrichment or nearness to the bait. Other partners may have been found. For part of these data: Tags and fused reporters may be left off the sequences shown.

Consider “ROR1 (endogenous) (from UniProt Q01973 30-937) (receptor)”, for which the binding entry in assay [1] and in assay [2] was “binds” in each case.

For “ROR2 (endogenous) (from UniProt Q01974 34-943) (receptor)”, the binding entry in assay [3], in assay [1] and in assay [2] was “binds” throughout.

B1: SEC24B (protein, UniProt O95487 1-1268)
chain: MSAPAGSSHPAASARIPPKFGGAAVSGAAAPAGPGAGPAPHQQNGPAQNQMQVPSGYGLHHQNYIAPSGHYSQGPGKMTSLPLDTQCGDYYSALYTVPTQNVTPNTVNQQPGAQQLYSRGPPAPHIVGSTLGSFQGAASSASHLHTSASQPYSSFVNHYNSPAMYSASSSVASQGFPSTCGHYAMSTVSNAAYPSVSYPSLPAGDTYGQMFTSQNAPTVRPVKDNSFSGQNTAISHPSPLPPLPSQQHHQQQSLSGYSTLTWSSPGLPSTQDNLIRNHTGSLAVANNNPTITVADSLSCPVMQNVQPPKSSPVVSTVLSGSSGSSSTRTPPTANHPVEPVTSVTQPSELLQQKGVQYGEYVNNQASSAPTPLSSTSDDEEEEEEDEEAGVDSSSTTSSASPMPNSYDALEGGSYPDMLSSSASSPAPDPAPEPDPASAPAPASAPAPVVPQPSKMAKPFGYGYPTLQPGYQNATAPLISGVQPSNPVYSGFQQYPQQYPGVNQLSSSIGGLSLQSSPQPESLRPVNLTQERNILPMTPVWAPVPNLNADLKKLNCSPDSFRCTLTNIPQTQALLNKAKLPLGLLLHPFRDLTQLPVITSNTIVRCRSCRTYINPFVSFIDQRRWKCNLCYRVNDVPEEFMYNPLTRSYGEPHKRPEVQNSTVEFIASSDYMLRPPQPAVYLFVLDVSHNAVEAGYLTILCQSLLENLDKLPGDSRTRIGFMTFDSTIHFYNLQEGLSQPQMLIVSDIDDVFLPTPDSLLVNLYESKELIKDLLNALPNMFTNTRETHSALGPALQAAFKLMSPTGGRVSVFQTQLPSLGAGLLQSREDPNQRSSTKVVQHLGPATDFYKKLALDCSGQQTAVDLFLLSSQYSDLASLACMSKYSAGCIYYYPSFHYTHNPSQAEKLQKDLKRYLTRKIGFEAVMRIRCTKGLSMHTFHGNFFVRSTDLLSLANINPDAGFAVQLSIEESLTDTSLVCFQTALLYTSSKGERRIRVHTLCLPVVSSLADVYAGVDVQAAICLLANMAVDRSVSSSLSDARDALVNAVVDSLSAYGSTVSNLQHSALMAPSSLKLFPLYVLALLKQKAFRTGTSTRLDDRVYAMCQIKSQPLVHLMKMIHPNLYRIDRLTDEGAVHVNDRIVPQPPLQKLSAEKLTREGAFLMDCGSVFYIWVGKGCDNNFIEDVLGYTNFASIPQKMTHLPELDTLSSERARSFITWLRDSRPLSPILHIVKDESPAKAEFFQHLIEDRTEAAFSYYEFLLHVQQQICK
In the case of B1, in the assay with VANGL2-BirA*-HA (human), the binding result is listed as “binds”.

B2: PHACTR4 (endogenous) (protein, UniProt Q8IZ21 1-702)
chain: T2 sequence
Regarding B2, the binding entry (with ROR1-BirA*-HA (human); in the assay with ROR2-BirA*-HA (human); in assay [4]) was “binds” throughout.
